# The list is a part of this screen's results and no random one: it is rich in T/C values a quarter to a half above the control, in often repeated tests (any T/C) and in doses without a T/C. Further doses and runs are listed elsewhere. T/C: endpoint of the treated group in % of that of the vehicle group. Some doses have a count of surviving animals in place of a T/C: the source holds a T/C of zero for them, seemingly a mark for toxic or unscored doses. Some survivor counts are full or nearly so, which does not show that the dose was tolerated: the source hardly ever lists a survival T/C far under the control, and the zero likely stands for such cases as well. Survivors were counted at the toxicity check, usually on the fifth day, unless a day is given; later deaths do not show. Schedule codes are those of the source, read here as Q, the interval in days (D) or hours (H), X, the number of doses. Some doses were run more than once; the results are listed from low to high. For survival time, this PubChem deposit counts one and a half times the control or more as active, and values a quarter to a half above the control carry no call in these data; other NCI protocols may use other cut-offs. Some T/C values carry the count of animals alive at the toxicity check (mostly the fifth day); without a count, all were alive then.
# System: BDF1 mice, B16 melanoma ip, median survival T/C
# Assay: NCI In Vivo Anticancer Drug Screen. Data for tumor model B16 Melanoma (intraperitoneal) in B6D2F1 (BDF1) mice
# Conditions: T/C endpoint: median survival time, higher T/C = longer survival
# Procedure, shortened: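 Values are ratios of treated (T) to vehicle-control (C) measurements of survival or tumor size in tumor-bearing mice.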
# [1] = dose: 400.0 mg/kg/injection, schedule: Q01DX001 (ip), vehicle: water
# [2] = dose: 50.0 mg/kg/injection, schedule: Q01DX009 (ip), vehicle: saline with Tween-80
# [3] = dose: 100.0 mg/kg/injection, schedule: Q01DX009 (ip), vehicle: saline with Tween-80
# [4] = dose: 50.0 mg/kg/injection, schedule: Q01DX009 (ip), vehicle: saline
# [5] = dose: 50.0 mg/kg/injection, schedule: Q01DX009 (ip), vehicle: Klucel (hydroxypropylcellulose) (HPC)
# [6] = dose: 200.0 mg/kg/injection, schedule: Q01DX009 (ip), vehicle: Klucel (hydroxypropylcellulose) (HPC)
# [7] = dose: 100.0 mg/kg/injection, schedule: Q01DX009 (ip), vehicle: Klucel (hydroxypropylcellulose) (HPC)
structure (smiles),measurement,setting,value
CO[C@H]1C[C@](C)(O)Cc2cc3c(c(O)c21)C(=O)c1c(O)cc2c(c1C3=O)O[C@@H]1O[C@@]2(C)[C@H](O)[C@@H](N(C)C)[C@@H]1O,T/C,"dose: 0.78 mg/kg/injection, schedule: Q01DX009 (ip), vehicle: other",125 % of control
same,T/C,"dose: 1.56 mg/kg/injection, schedule: Q01DX009 (ip), vehicle: other",143 and 146 % of control
same,T/C,"dose: 3.12 mg/kg/injection, schedule: Q01DX009 (ip), vehicle: other",143 % of control
same,T/C,"dose: 10.8 mg/kg/injection, schedule: Q04DX003 (ip), vehicle: lactic acid",145 % of control
same,T/C,"dose: 18.0 mg/kg/injection, schedule: Q01DX005 (iv), vehicle: other",127 % of control
same,survivor count,"dose: 18.0 mg/kg/injection, schedule: Q01DX009 (ip), vehicle: other",10 of 10
same,T/C,"dose: 25.0 mg/kg/injection, schedule: Q01DX001 (ip), vehicle: water",136 % of control
same,survivor count,"dose: 25.0 mg/kg/injection, schedule: Q01DX009 (ip), vehicle: other",8 of 10 and 10 of 10
same,T/C,"dose: 30.0 mg/kg/injection, schedule: Q04DX003 (ip), vehicle: lactic acid",127 and 136 % of control
same,survivor count,"dose: 36.0 mg/kg/injection, schedule: Q01DX001 (iv), vehicle: other",1 of 10
same,survivor count,"dose: 36.0 mg/kg/injection, schedule: Q01DX005 (ip), vehicle: other",10 of 10
same,survivor count,"dose: 36.0 mg/kg/injection, schedule: Q01DX005 (iv), vehicle: other",1 of 10
same,survivor count,"dose: 36.0 mg/kg/injection, schedule: Q01DX009 (ip), vehicle: other",10 of 10
same,survivor count,"dose: 36.0 mg/kg/injection, schedule: Q01DX009 (oral), vehicle: other",9 of 10
same,survivor count,"dose: 50.0 mg/kg/injection, schedule: Q04DX003 (ip), vehicle: lactic acid",9 of 10 and 10 of 10
same,survivor count,"dose: 72.0 mg/kg/injection, schedule: Q01DX001 (ip), vehicle: other",10 of 10
same,survivor count,"dose: 72.0 mg/kg/injection, schedule: Q01DX001 (iv), vehicle: other",0 of 10
same,survivor count,"dose: 72.0 mg/kg/injection, schedule: Q01DX005 (oral), vehicle: other",9 of 10
same,survivor count,"dose: 72.0 mg/kg/injection, schedule: Q01DX009 (oral), vehicle: other",10 of 10
same,survivor count,"dose: 144.0 mg/kg/injection, schedule: Q01DX001 (ip), vehicle: other",2 of 10
same,survivor count,"dose: 144.0 mg/kg/injection, schedule: Q01DX001 (iv), vehicle: other",0 of 10
same,T/C,"dose: 144.0 mg/kg/injection, schedule: Q01DX001 (oral), vehicle: other",130 % of control
same,survivor count,"dose: 288.0 mg/kg/injection, schedule: Q01DX001 (ip), vehicle: other",0 of 10
same,survivor count,"dose: 288.0 mg/kg/injection, schedule: Q01DX001 (iv), vehicle: other",0 of 10
same,survivor count,"dose: 288.0 mg/kg/injection, schedule: Q01DX001 (oral), vehicle: other",10 of 10
same,T/C,[1],125 % of control
same,survivor count,[1],9 of 10
same,survivor count,"dose: 576.0 mg/kg/injection, schedule: Q01DX001 (oral), vehicle: other",10 of 10
CCOC(=O)C(N)C[S][Sn]([CH3])([CH3])[Cl] (stereo unspecified),survivor count,[2],8 of 10
same,survivor count,[3],0 of 10
CCCCCCCCCCCCCCCC(=O)Nc1ccn(C2OC(CO)C(O)C2O)c(=O)n1 (stereo unspecified),T/C,"dose: 12.5 mg/kg/injection, schedule: Q01DX009 (ip), vehicle: saline",136 % of control [9 of 10 alive]
same,T/C,"dose: 25.0 mg/kg/injection, schedule: Q01DX009 (ip), vehicle: saline",130 % of control
same,survivor count,[4],10 of 10
same,survivor count,"dose: 100.0 mg/kg/injection, schedule: Q01DX009 (ip), vehicle: saline",10 of 10
same,survivor count,"dose: 200.0 mg/kg/injection, schedule: Q01DX009 (ip), vehicle: saline",10 of 10
same,survivor count,"dose: 400.0 mg/kg/injection, schedule: Q01DX009 (ip), vehicle: saline",8 of 10
COc1cccc2c1C(=O)c1c(O)c3c(c(O)c1C2=O)C[C@@](O)(C(=O)CN1CCOCC1)C[C@@H]3OC1CC(N)C(O)C(C)O1 (stereo partly specified),T/C,"dose: 1.56 mg/kg/injection, schedule: Q01DX009 (ip), vehicle: water",130 % of control
O=P(CCCCCCP(=O)(N1CC1)N1CC1)(N1CC1)N1CC1,T/C,"dose: 25.0 mg/kg/injection, schedule: Q01DX009 (ip), vehicle: Klucel (hydroxypropylcellulose) (HPC)",135 % of control
same,T/C,[5],142 % of control
same,survivor count,[6],9 of 10
CC(=O)OC1C2(CC3N4C(=O)C5(CO)SSC4(CC31O)C(=O)N5C)OC(C)C(C)(C)C2=O (stereo unspecified),survivor count,"dose: 1.25 mg/kg/injection, schedule: Q01DX009 (ip), vehicle: saline",8 of 10
same,survivor count,"dose: 2.5 mg/kg/injection, schedule: Q01DX009 (ip), vehicle: saline",1 of 10
same,survivor count,"dose: 5.0 mg/kg/injection, schedule: Q01DX009 (ip), vehicle: saline",0 of 10
same,survivor count,"dose: 10.0 mg/kg/injection, schedule: Q01DX009 (ip), vehicle: saline",1 of 10
CC(C)(C)OC(=O)NC(Cc1ccc(OCc2ccccc2)cc1)C(=O)O (stereo unspecified),survivor count,[2],10 of 10
same,survivor count,"dose: 200.0 mg/kg/injection, schedule: Q01DX009 (ip), vehicle: saline with Tween-80",9 of 10
same,survivor count,"dose: 400.0 mg/kg/injection, schedule: Q01DX009 (ip), vehicle: saline with Tween-80",3 of 10
CCNC(=O)OCc1c(COC(=O)NCC)c(-c2ccc(Cl)c(Cl)c2)n2c1CCC2,T/C,"dose: 12.5 mg/kg/injection, schedule: Q01DX009 (ip), vehicle: saline with Tween-80",144 % of control
same,survivor count,[2],10 of 10
same,survivor count,[3],2 of 10
C[CH2][Pb]([CH2]C)([CH2]C)[O]C(=O)CBr,survivor count,"dose: 6.0 mg/kg/injection, schedule: Q01DX009 (ip), vehicle: Klucel (hydroxypropylcellulose) (HPC)",8 of 8
same,survivor count,"dose: 12.0 mg/kg/injection, schedule: Q01DX009 (ip), vehicle: Klucel (hydroxypropylcellulose) (HPC)",10 of 10
COc1cccc2c1C(=O)c1c(O)c3c(c(O)c1C2=O)C[C@@](O)(C(=O)CO)C[C@@H]3OC1CC(N2CCOCC2C#N)C(O)C(C)O1 (stereo partly specified),survivor count,"dose: 75.0 micrograms/kg/injection, schedule: Q01DX001 (ip), vehicle: water",6 of 10
same,survivor count,"dose: 150.0 micrograms/kg/injection, schedule: Q01DX001 (ip), vehicle: water",0 of 10
same,survivor count,"dose: 300.0 micrograms/kg/injection, schedule: Q01DX001 (ip), vehicle: water",0 of 10
same,survivor count,"dose: 600.0 micrograms/kg/injection, schedule: Q01DX001 (ip), vehicle: water",0 of 10
COC(=O)C(CCCN=C(N)N)NC(=O)OCc1ccccc1 (stereo unspecified),survivor count,"dose: 400.0 mg/kg/injection, schedule: Q04DX003 (ip), vehicle: saline",0 of 7
O=C(O)C(O)C(O)C(=O)O.O=C(O)C(O)C(O)C(=O)O.[O]=[V].[O]=[V] (stereo unspecified),survivor count,[4],7 of 10
NC(=O)c1nn(C2OC(CO)C(O)C2O)c2ncnc(N)c12 (stereo unspecified),survivor count,[5],3 of 10
same,survivor count,[7],0 of 10
same,survivor count,[6],0 of 10
O=NO.O=N[O-].O=N[O-].[Co+3].[NH2-].[NH2-].[NH2-].[NH2-],survivor count,[5],10 of 10
same,survivor count,[7],1 of 10
C=CCN1C(=O)C=CC1=O,survivor count,"dose: 3.0 mg/kg/injection, schedule: Q01DX009 (ip), vehicle: saline",10 of 10
same,survivor count,"dose: 6.0 mg/kg/injection, schedule: Q01DX009 (ip), vehicle: saline",6 of 10
CC(=O)OC1C(C)OC(OC(=O)C2CCC3C(C2)OC2(CC(OC(=O)/C=C/c4ccccc4)C(C)CO2)C32CO2)C(OC2OC(C)C(O)C(OC(C)=O)C2O)C1O (stereo unspecified),T/C,"dose: 3.0 mg/kg/injection, schedule: Q01DX009 (ip), vehicle: saline + alcohol",148 % of control

# Reference: PubChem BioAssay AID192 (DTP/NCI, 2004)
